Measurements reported in article PMC6739330.
Results are given in words; binding and its absence hold for the method and conditions named. In cells and extracts the contact can be indirect. Some entries that bind do so weakly or less than the wild type.

The chains behind the UniProt entries cited, without tags or fusion partners. Where a name states a change or a piece, a line headed by the entry shows the natural chain unless it says otherwise. A line that says so, or that is headed by a name, gives the form on record, which may keep a tag or linker.
CD56 (NCAM, neural cell adhesion molecule) tagged with CFP or YFP, on CD8+ T cells (P13591-1, form named): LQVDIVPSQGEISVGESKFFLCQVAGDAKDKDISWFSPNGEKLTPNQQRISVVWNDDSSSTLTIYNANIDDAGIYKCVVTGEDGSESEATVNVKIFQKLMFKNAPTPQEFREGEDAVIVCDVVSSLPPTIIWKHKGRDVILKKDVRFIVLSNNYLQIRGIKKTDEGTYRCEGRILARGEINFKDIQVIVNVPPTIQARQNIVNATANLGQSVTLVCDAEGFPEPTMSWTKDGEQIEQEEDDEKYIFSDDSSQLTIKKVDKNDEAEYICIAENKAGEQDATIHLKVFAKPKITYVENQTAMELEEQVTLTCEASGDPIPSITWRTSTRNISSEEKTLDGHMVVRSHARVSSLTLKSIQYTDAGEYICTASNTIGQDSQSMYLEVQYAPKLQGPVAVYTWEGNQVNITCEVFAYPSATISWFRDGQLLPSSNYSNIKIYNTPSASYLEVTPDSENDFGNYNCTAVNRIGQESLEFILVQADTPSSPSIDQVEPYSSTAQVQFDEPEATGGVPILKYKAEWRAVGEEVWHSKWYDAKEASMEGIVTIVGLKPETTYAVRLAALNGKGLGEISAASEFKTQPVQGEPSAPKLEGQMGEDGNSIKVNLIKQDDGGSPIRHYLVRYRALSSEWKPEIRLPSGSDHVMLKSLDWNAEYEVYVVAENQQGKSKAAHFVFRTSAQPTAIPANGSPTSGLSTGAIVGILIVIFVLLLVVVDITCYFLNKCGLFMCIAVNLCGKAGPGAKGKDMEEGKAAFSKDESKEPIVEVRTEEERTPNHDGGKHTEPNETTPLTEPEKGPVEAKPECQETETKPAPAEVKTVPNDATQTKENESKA

Columns and labels:
[1] = target: CD56 (NCAM, neural cell adhesion molecule) tagged with CFP or YFP, on CD8+ T cells (UniProt P13591); assay: FRET or BRET; as a1, with P3DE + P3G peptides at various concentrations; the pair that is blocked
[2] = target: CD56 (NCAM, neural cell adhesion molecule) tagged with CFP or YFP, on CD8+ T cells (UniProt P13591); assay: FRET or BRET; intercellular: CFP-CD56-expressing CD8+ T cells mixed 1:1 (10^6 cells each) with YFP-CD56-expressing CD8+ T cells, phenol red-free medium, 96-well black plates, 4 h; emission ratio 500~550 nm/495~505 nm

binding [1]: binds
binding [2]: binds
Substance: CD56 (NCAM, neural cell adhesion molecule) tagged with CFP or YFP, on CD8+ T cells (from UniProt P13591-1 20-848) (receptor)
